Results as given in PubChem BioAssay AID504834 (National Center for Advancing Translational Sciences (NCATS), 2011).
Among all 320,000 compounds or so, about 22,000 (6.9%) were called active. Listed are the inconclusive results; actives and inactives stand elsewhere. Calls come from the whole dose curve; as a rule, active = well fitted inhibition curve with a large enough effect; inconclusive = small, poorly fitted or top-dose-only effect, or another doubt; inactive = no such curve, though single readings can be large or run the other way. Some results for these compounds are left out of this collection, so the calls shown say nothing about other tests.

test: Primary qHTS for delayed death inhibitors of the malarial parasite plastid, 96 hour incubation; conditions: P. falciparum luciferase reporter growth
Potency is the fitted concentration of half-maximal effect.

| SMILES | Potency |
| --- | --- |
| O=C(OC1CN2CCC1CC2)C(CO)(c1ccccc1)c1ccccc1 (configuration not stated) | inconclusive: 8.28 µM |
| CN1[C@@H]2CC[C@H]1CC(OC(=O)C(O)(c1ccccc1)c1ccccc1)C2 (some centres not stated) | inconclusive: 18.5 µM |
